{"source": "patent US12449414B2", "about": "“Calibrating and normalizing an imager for optogenetics” (QUIVER HOLDINGS INC., priority 2020, dated 2025)", "system": "IPSC-derived cardiomyocyte", "assay": "IPSC-derived cardiomyocyte validation assay: simultaneous voltage (BeRST1) and calcium (jRGECO1a) imaging with CheRiff blue light stimulation", "assay_type": "cell-based", "details": "10-test pulse blue stimulation protocol, 3 wells of each concentration", "note": "At least one compound was matched to its structure with a doubt left.", "data": [{"smiles": "COC(=O)C1=C(C)NC(C)=C(C(=O)OC)C1c1ccccc1[N+](=O)[O-]", "note": "[Nifedipine]", "values": [{"measurement": "voltage action potential waveform and calcium transients", "setting": "at 0.3 μM, 96-well plate", "value": "completely extinguished"}, {"measurement": "voltage action potential waveform and calcium transients", "setting": "increasing concentration", "value": "altered both the voltage action potential waveform and calcium transients"}]}]}
